No constants are given. Whether binding was seen depends on the method and setting. For part of these data: Binding calls can cover weak binding; strength is not graded here.
Experiments:
Assay in all cases: two-hybrid; AtNHX1 C-terminal 99 aa as bait (Gal4 binding domain, pDEST-GBKT7), AtCaM15 as prey (Gal4 activation domain, pDEST-GADT7); S. cerevisiae Y190; growth on SC-T/L/H with 25 mM 3-AT and X-gal staining (LacZ)
[1] = molecular target: AtNHX1 C-terminal region (99 amino acids), sup1602 allele (Arabidopsis)
[2] = molecular target: AtNHX1 C-terminal region (99 amino acids), wild type (Arabidopsis)
[3] = molecular target: AtNHX1 C-terminal region (99 amino acids), sup908 allele (Arabidopsis)

B1: AtCaM15 (protein, UniProt Q9M8U1 1-165)
chain: MSCDGGKPAPAKLGDEQLAELREIFRSFDQNKDGSLTELELGSLLRSLGLKPSQDQLDTLIQKADRNNNGLVEFSEFVALVEPDLVKCPYTDDQLKAIFRMFDRDGNGYITAAELAHSMAKLGHALTAEELTGMIKEADRDGDGCIDFQEFVQAITSAAFDNAWG
Which binding [1] does the source give for B1 here?
The binding was “no binding”.

And the binding [2]?
The binding was “binds”.

What about the binding [3] of the same binder?
Its binding is “no binding”.

Reference: paper PMC10441915
